Test results published in paper PMC4550699.
These are yes or no findings as the source states them, for the method shown. In cells and extracts the contact can be indirect. Sequences can lack the tags named with a protein.

Chains of the proteins cited; added tags and fusions are not shown.
UniProt Q9ZW35: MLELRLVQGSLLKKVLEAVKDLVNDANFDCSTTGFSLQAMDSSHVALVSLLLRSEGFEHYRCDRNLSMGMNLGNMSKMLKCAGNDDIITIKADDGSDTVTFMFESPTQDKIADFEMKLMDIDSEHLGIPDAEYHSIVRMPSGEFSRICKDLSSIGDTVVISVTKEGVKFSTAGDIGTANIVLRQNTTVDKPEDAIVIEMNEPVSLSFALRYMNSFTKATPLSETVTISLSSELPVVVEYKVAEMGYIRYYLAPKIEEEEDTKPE
UniProt Q9M7Q7: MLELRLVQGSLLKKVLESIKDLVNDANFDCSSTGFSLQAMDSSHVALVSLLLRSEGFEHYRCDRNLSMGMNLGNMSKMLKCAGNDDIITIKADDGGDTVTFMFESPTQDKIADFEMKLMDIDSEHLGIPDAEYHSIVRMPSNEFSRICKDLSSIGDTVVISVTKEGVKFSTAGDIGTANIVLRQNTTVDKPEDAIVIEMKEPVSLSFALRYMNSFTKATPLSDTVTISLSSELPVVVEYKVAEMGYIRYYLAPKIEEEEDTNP

Legend:
[1] = target: RFP_PCNA2 (Arabidopsis thaliana) (UniProt Q9ZW35); assay: condition: FRET efficiency 1.23%; threshold 1.19%; FRET or BRET; FLIM-FRET in nuclei of transiently transformed N. benthamiana leaf cells; donor GFP fusion, acceptor RFP fusion; E = (1 - tauDA/tauD) x 100%; FRET efficiency of free GFP/RFP (1.19%) used as threshold
[2] = target: RFP_PCNA1 (Arabidopsis thaliana) (UniProt Q9M7Q7); assay: condition: FRET efficiency 0.41%; threshold 1.19%; FRET or BRET; FLIM-FRET in nuclei of transiently transformed N. benthamiana leaf cells; donor GFP fusion, acceptor RFP fusion; E = (1 - tauDA/tauD) x 100%; FRET efficiency of free GFP/RFP (1.19%) used as threshold
[3] = target: PCNA1_RFP (Arabidopsis thaliana) (UniProt Q9M7Q7); assay: condition: FRET efficiency 1.50%; threshold 1.19%; FRET or BRET; FLIM-FRET in nuclei of transiently transformed N. benthamiana leaf cells; donor GFP fusion, acceptor RFP fusion; E = (1 - tauDA/tauD) x 100%; FRET efficiency of free GFP/RFP (1.19%) used as threshold
[4] = target: PCNA2_RFP (Arabidopsis thaliana) (UniProt Q9ZW35); assay: condition: FRET efficiency 1.42%; threshold 1.19%; FRET or BRET; FLIM-FRET in nuclei of transiently transformed N. benthamiana leaf cells; donor GFP fusion, acceptor RFP fusion; E = (1 - tauDA/tauD) x 100%; FRET efficiency of free GFP/RFP (1.19%) used as threshold

Measured: binding

B1: CycD3;3_GFP (protein, UniProt Q9SN11 1-361)
chain: MALEEEEESQNAPFCVLDGLFCEEESEFHEQVDLCDESVEKFPFLNLGLSDHDMLWDDDELSTLISKQEPCLYDEILDDEFLVLCREKALDWIFKVKSHYGFNSLTALLAVNYFDRFITSRKFQTDKPWMSQLTALACLSLAAKVEEIRVPFLLDFQVEEARYVFEAKTIQRMELLVLSTLDWRMHPVTPISFFDHIIRRYSFKSHHQLEFLSRCESLLLSIIPDSRFLSFSPSVLATAIMVSVIRDLKMCDEAVYQSQLMTLLKVDSEKVNKCYELVLDHSPSKKRMMNWMQQPASPIGVFDASFSSDSSNESWVVSASASVSSSPSSEPLLKRRRVQEQQMRLSSINRMFFDVLSSSPR
no binding: all assays above
